Measurements taken from patent US20180012623A1, “Ionic Liquid, Lubricant, and Magnetic Recording Medium” (Dexerials Corporation, priority 2016, published 2018).

Experiment: Tape durability test (coefficient of friction, still durability, shuttle durability)
Conditions: for Still durability after heating test / Coefficient of friction after 100 runs after heating test / Shuttle durability after heating: after heating test 10 minutes at 100° C.; for Still durability: decay time of output by −3 dB in paused state; for Shuttle durability: number of shuttles until output reduced by 3 dB

Compound	Still durability after heating test (40° C., 30% RH)	Still durability (40° C., 30% RH)	Coefficient of friction after 100 runs (40° C., 90% RH)	Coefficient of friction after 100 runs after heating test (40° C., 90% RH)	Shuttle durability after heating (40° C., 90% RH)	Shuttle durability (40° C., 90% RH)	Coefficient of friction after 100 runs (−5° C.)	Coefficient of friction after 100 runs after heating test (−5° C.)	Shuttle durability after heating (−5° C.)	Still durability after heating test (−5° C.)	Still durability (−5° C.)	Shuttle durability (−5° C.)
CCCCCCCCCCCCCCCCCC[n+]1ccn(CCCC)c1.O=S1(=O)[N-]S(=O)(=O)C(F)(F)C(F)(F)C1(F)F [2A, hexafluorocyclopropane-1,3-bis(sulfonyl)imide-1-butyl-3-n-octadecylimidazolium]	>60 min	>60 min	0.25	0.27	>200 times	>200 times	0.23	0.25	>200 times	>60 min	>60 min	>200 times
CCCCCCCCCCCCCCCCCCn1ccnc1CCCCCCCCCCCCCCCCC.O=S(=O)(O)C(F)(F)C(F)(F)C(F)(F)C(F)(F)F [4A, nonafluorobutanesulfonic acid-1-octadecyl-2-heptadecyimidazole]	>60 min	>60 min	0.22	0.23	>200 times	>200 times	0.20	0.21	>200 times	>60 min	>60 min	>200 times
CCCCCCCCCCCCn1ccnc1CCCCCCCCCCC.O=S(=O)(NS(=O)(=O)C(F)(F)C(F)(F)C(F)(F)C(F)(F)F)C(F)(F)C(F)(F)C(F)(F)C(F)(F)F [Ex. 2A, bis(nonafluorobutanesulfonyl)imide-1-dodecyl-2-undecylimidazolium]	>60 min	>60 min	0.25	0.26	>200 times	>200 times	0.22	0.23	>200 times	>60 min	>60 min	>200 times
CCCCCCCCCCCCCCCCCCn1ccnc1CCCCCCCCCCC.O=S(=O)(NS(=O)(=O)C(F)(F)C(F)(F)C(F)(F)C(F)(F)F)C(F)(F)C(F)(F)C(F)(F)C(F)(F)F [Ex. 4A, bis(nonafluorobutanesulfonyl)imide-1-octadecyl-2-undecylimidazolium]	>60 min	>60 min	0.22	0.23	>200 times	>200 times	0.21	0.22	>200 times	>60 min	>60 min	>200 times
nonafluorobutanesulfonic acid-1-dodecyl-2-undecylimidazolium [Ex. 1A]	>60 min	>60 min	0.24	0.25	>200 times	>200 times	0.23	0.24	>200 times	>60 min	>60 min	>200 times
nonafluorobutanesulfonic acid-1-octadecyl-2-undecylimidazolium [Ex. 3A]	>60 min	>60 min	0.21	0.22	>200 times	>200 times	0.20	0.21	>200 times	>60 min	>60 min	>200 times
nonafluorobutanesulfonic acid-2-heptadecylimidazole [3A]	>60 min	>60 min	0.20	0.21	>200 times	>200 times	0.18	0.19	>200 times	>60 min	>60 min	>200 times
